No constants are given. Whether binding was seen depends on the method and setting. Some binding calls cover weakened binding; strength is not graded here. Values belong to the molecule of their own block, whether it stands above or below them.
Key:
[1] = molecular target: T1, REV7 (R124A mutant), full-length (human, UniProt Q9UI95 1-211, R124A); experiment: SEC-MALS; coexpressed, co-purified SHLD3(35–74)–REV7(R124A) complex; Superdex200 10/300, 20 mM Tris·HCl pH 7.5, 150 mM NaCl, 2 mM DTT; both purified
T1 construct: REV7 (MAD2L2, MAD2B), human, 211 residues, R124A; R124A was introduced to improve crystallization; also called MAD2L2; MAD2B; source: E. coli BL21 CodonPlus(DE3)-RIL, coexpressed with the SHLD3 fragment, purified (HisTrap, HiTrap Q, Superdex 200); not shown: His6-SUMO, N-terminal, cleaved

Amino acid sequences for entries named in this document (tags omitted). A change or cut given only in a name is not applied to a line headed by its entry.
UniProt Q9UI95: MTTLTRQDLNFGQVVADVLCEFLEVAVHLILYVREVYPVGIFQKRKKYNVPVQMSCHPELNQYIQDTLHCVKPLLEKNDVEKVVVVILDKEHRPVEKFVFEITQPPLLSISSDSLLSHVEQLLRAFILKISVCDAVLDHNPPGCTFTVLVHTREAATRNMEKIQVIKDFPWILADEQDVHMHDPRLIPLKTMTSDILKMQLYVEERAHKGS
UniProt Q86V20: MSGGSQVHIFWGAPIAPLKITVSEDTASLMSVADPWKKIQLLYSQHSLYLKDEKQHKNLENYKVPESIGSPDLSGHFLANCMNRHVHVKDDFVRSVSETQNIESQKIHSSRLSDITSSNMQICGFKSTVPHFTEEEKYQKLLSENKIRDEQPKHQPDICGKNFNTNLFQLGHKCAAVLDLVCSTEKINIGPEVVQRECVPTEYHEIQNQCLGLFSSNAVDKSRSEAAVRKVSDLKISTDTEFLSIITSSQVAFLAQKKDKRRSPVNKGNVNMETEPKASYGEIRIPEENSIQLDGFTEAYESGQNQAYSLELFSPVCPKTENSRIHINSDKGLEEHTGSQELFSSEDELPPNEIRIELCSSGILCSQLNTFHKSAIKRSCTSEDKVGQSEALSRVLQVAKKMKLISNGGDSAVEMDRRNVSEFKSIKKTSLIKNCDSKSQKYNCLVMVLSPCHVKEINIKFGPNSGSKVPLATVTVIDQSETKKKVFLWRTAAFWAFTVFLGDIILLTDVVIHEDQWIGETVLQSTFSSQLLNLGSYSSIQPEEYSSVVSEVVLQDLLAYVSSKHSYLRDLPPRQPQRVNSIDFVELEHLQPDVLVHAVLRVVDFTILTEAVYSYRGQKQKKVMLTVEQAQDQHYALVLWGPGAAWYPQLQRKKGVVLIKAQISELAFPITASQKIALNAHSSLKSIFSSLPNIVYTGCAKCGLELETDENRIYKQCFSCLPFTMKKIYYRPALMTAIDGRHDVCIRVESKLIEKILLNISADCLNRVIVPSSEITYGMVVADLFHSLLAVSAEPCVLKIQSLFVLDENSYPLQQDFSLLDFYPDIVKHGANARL

[2] = molecular target: T2, REV7 (human, UniProt Q9UI95 1-211); experiment: crystal structure; SHLD2.3–REV7_(4) complex (peak Q2); hanging drop, 0.1 M Na acetate pH 5.6, 1.5 M Na formate, 20 °C; 3.8 Å; both purified
T2 construct: REV7 (MAD2L2, MAD2B), human, 211 residues; also called MAD2L2; MAD2B; not shown: His6-SUMO, N-terminal, cleaved

[3] = molecular target: T3, SHLD3 fragment (residues 1 to 58), the SHLD3 part of SHLD2.3 (human) (UniProt Q6ZNX1); experiment: as above
T3 sequence: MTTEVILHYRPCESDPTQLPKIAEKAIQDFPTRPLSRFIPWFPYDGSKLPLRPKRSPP

- binding [1]: no binding
Molecule: REV7 (R124A mutant), full-length (from UniProt Q9UI95 1-211)

- binding [2]: binds
B1: SHLD3 fragment (residues 1 to 58), the SHLD3 part of SHLD2.3 (domain or fragment, UniProt Q6ZNX1 1-58)
chain: T3 sequence

- binding [3]: binds
B2: SHLD2 fragment (residues 1 to 19), the SHLD2 part of SHLD2.3 (domain or fragment, human, UniProt Q86V20 1-19, looked up)
chain: MSGGSQVHIFWGAPIAPLK
notes: In the crystal it stood on one chain with SHLD3(1-58); written apart for the SHLD2–SHLD3 and SHLD2–REV7 contacts; also called SHLD2(residues 1 to 19); source: E. coli BL21 CodonPlus(DE3)-RIL, as part of the SHLD2.3 fusion chain, purified with REV7

From article PMC7923543, “Molecular mechanisms of assembly and TRIP13-mediated remodeling of the human Shieldin complex” (Proceedings of the National Academy of Sciences of the …, 2021)
